From publication PMC9600610
No constants are given. Whether binding was seen depends on the method and setting. In cells and extracts the contact can be indirect. These calls come from enrichment with a bait or labelling near it, and not all partners need be listed.

Amino acid sequences for entries named in this document (tags omitted).
UniProt P02584: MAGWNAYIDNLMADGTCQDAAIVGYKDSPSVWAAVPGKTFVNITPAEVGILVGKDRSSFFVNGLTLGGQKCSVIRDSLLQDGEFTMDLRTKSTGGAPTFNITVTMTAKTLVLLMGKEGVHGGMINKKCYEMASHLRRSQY
UniProt Q2KJ93: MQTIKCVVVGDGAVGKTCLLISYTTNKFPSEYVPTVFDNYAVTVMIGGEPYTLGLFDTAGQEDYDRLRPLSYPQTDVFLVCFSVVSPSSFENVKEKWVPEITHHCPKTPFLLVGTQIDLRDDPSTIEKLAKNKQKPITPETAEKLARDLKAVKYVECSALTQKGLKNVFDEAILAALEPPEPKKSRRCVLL
UniProt P61585: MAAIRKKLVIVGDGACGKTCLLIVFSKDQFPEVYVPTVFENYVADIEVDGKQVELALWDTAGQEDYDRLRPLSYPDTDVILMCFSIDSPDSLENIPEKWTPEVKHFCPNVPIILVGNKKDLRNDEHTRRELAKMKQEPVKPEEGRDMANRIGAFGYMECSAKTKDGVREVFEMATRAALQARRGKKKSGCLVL
UniProt Q1RMJ6: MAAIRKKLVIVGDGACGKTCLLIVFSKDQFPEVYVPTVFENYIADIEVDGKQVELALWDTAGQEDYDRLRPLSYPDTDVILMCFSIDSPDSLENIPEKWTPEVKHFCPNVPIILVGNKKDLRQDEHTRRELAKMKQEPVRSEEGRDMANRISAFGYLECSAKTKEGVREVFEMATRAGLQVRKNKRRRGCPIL
UniProt Q2TA49: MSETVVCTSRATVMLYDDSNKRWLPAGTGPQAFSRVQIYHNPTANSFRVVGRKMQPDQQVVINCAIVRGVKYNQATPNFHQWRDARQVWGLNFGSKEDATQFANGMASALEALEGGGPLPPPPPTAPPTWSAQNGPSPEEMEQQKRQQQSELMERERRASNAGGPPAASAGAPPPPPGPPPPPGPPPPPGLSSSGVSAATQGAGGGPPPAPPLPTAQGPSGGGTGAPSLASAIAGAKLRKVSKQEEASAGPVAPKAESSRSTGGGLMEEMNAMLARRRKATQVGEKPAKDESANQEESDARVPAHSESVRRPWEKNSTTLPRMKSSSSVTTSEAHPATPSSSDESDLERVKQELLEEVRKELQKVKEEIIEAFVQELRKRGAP

biological target: Profilin1 (bovine (endogenous in bovine myoblasts)) (UniProt P02584); experiment: affinity purification with mass spectrometry; PFN1 antibody or IgG on protein A/G magnetic beads, incubated with lysate of DM2 bovine myoblasts at 4 °C overnight; SDS-PAGE and mass spectrometry; proteins found only in the IP group deemed potential binding proteins

binding, binds:
Cdc42 (from UniProt Q2KJ93 1-191)
RhoA (from UniProt P61585 1-193)
RhoC (from UniProt Q1RMJ6 1-193)
VASP (from UniProt Q2TA49 1-383)
